{"source": "PubChem BioAssay AID587", "about": "(National Center for Advancing Translational Sciences (NCATS), 2007)", "note": "Hit rate of the full screen: of about 59,000 compounds, about 35 (0.06%) were called active. The shares of active, inactive and inconclusive entries below differ from those in the screen. No stated cut-off is given here; in the data, active means max dye-equivalent concentration above about 10 nM; inconclusive means between about 1.1 nM and that limit; inactive means weaker than that.", "data": [{"assay": "qHTS Assay for Spectroscopic Profiling in Texas Red Spectral Region", "settings": "Compound fluorescence, Texas Red channel, 547/618 nm; active compounds read high", "how_it_was_run": "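qHTS profiling of intrinsic compound fluorescence; 100 mM Tris pH 8.0; 15 min RT; ex 547 / em 618 nm; response expressed as Texas Red dye-equivalent concentration from six-point plate standard.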", "values": [{"smiles": "CCN(CC(=O)NC(C)C)C(=O)c1ccc(S(=O)(=O)N(C)c2ccccc2OC)cc1", "max dye-equivalent concentration": "inconclusive: 1.1 nM"}, {"smiles": "Cc1nn2c(-c3cccc(NC(=O)c4ccco4)c3)nnc2c2ccccc12", "max dye-equivalent concentration": "inconclusive: 1.1 nM"}, {"smiles": "O=C(NC12CC3CC(CC(C3)C1)C2)c1cnccn1", "max dye-equivalent concentration": "inconclusive: 1.2 nM"}, {"smiles": "O=C(Nc1cccc(F)c1)NC1CCCCC1", "max dye-equivalent concentration": "inconclusive: 1.9 nM"}, {"smiles": "CC(C)c1nnc(NC(=O)c2cccc(-n3cnnn3)c2)s1", "max dye-equivalent concentration": "inconclusive: 1.1 nM"}, {"smiles": "CCOC(=O)N1CCN(C(=O)c2ccc3c(=O)n(CCOC)c(=O)[nH]c3c2)CC1", "max dye-equivalent concentration": "inconclusive: 1.7 nM"}, {"smiles": "CCOCCCNCC(=O)Nc1ccc(OC(F)(F)F)cc1", "max dye-equivalent concentration": "inconclusive: 1.5 nM"}, {"smiles": "COc1ccc(S(=O)(=O)N2CCCCC2)cc1C(C)C", "max dye-equivalent concentration": "inconclusive: 2.4 nM"}, {"smiles": "C[C@@H]1O[C@@H](n2cc(F)c(=O)[nH]c2=O)[C@H](O)[C@@H]1O", "max dye-equivalent concentration": "inactive"}, {"smiles": "CCOC(=O)c1sc(NC(=O)CSc2nc(-c3ccco3)cc(C(F)(F)F)n2)c(C#N)c1C", "max dye-equivalent concentration": "inconclusive: 1.5 nM"}, {"smiles": "O=C(O)CP(=O)(O)O", "max dye-equivalent concentration": "inconclusive: 1.5 nM"}, {"smiles": "COc1ccccc1-n1c(SCC(=O)NC(C)(C)C)nc(O)cc1=O", "max dye-equivalent concentration": "inconclusive: 1.3 nM"}, {"smiles": "Cc1cc(-c2ccccc2C(=O)O)on1", "max dye-equivalent concentration": "inconclusive: 1.4 nM"}, {"smiles": "O=C(CN1CCC(C(=O)c2ccc(Cl)cc2)CC1)Nc1ccc2c(c1)OCCO2", "max dye-equivalent concentration": "inconclusive: 1.1 nM"}, {"smiles": "O=S(=O)(c1ccc2c(c1)OCO2)N1CCN(c2nnnn2-c2ccccc2)CC1", "max dye-equivalent concentration": "inconclusive: 1.2 nM"}, {"smiles": "CC1CC(C)CN(C(=O)COC(=O)CNS(=O)(=O)/C=C/c2ccccc2)C1", "note": "(stereo not given)", "max dye-equivalent concentration": "inconclusive: 2.5 nM"}, {"smiles": "C=CCNc1sc(C(=O)C(C)(C)C)c(N)c1C#N", "max dye-equivalent concentration": "inconclusive: 1.1 nM"}, {"smiles": "Cc1cn([C@H]2C[C@H](N=[N+]=[N-])[C@H](CO)O2)c(=O)[nH]c1=O", "max dye-equivalent concentration": "inconclusive: 1.5 nM"}, {"smiles": "CC(C)(C)n1ncc2c(=O)n(CC(=O)NCc3ccccc3)cnc21", "max dye-equivalent concentration": "inconclusive: 1.2 nM"}, {"smiles": "O=C(c1ccc(NS(=O)(=O)c2cccs2)cc1)N1CCCCC1", "max dye-equivalent concentration": "inconclusive: 1.2 nM"}, {"smiles": "Cc1ccc(-c2cn3nc(C)c(C)nc3n2)cc1", "max dye-equivalent concentration": "inconclusive: 1.4 nM"}, {"smiles": "O=C(c1cccc2c1C(=O)N(Cc1cccnc1)C2)N1CCN(c2ccccc2)CC1", "max dye-equivalent concentration": "inconclusive: 1.1 nM"}, {"smiles": "O=C(CSc1nnc(COc2ccccc2)n1Cc1ccco1)Nc1ccc2c(c1)OCCO2", "max dye-equivalent concentration": "inconclusive: 1.2 nM"}, {"smiles": "O=C(COC(=O)c1ccco1)NCC1CCCO1", "note": "(stereo not given)", "max dye-equivalent concentration": "inconclusive: 1.3 nM"}, {"smiles": "CCOC(=O)C1C(=O)CC(O)(c2ccccc2)CC1c1ccccc1", "note": "(stereo not given)", "max dye-equivalent concentration": "inconclusive: 1.1 nM"}, {"smiles": "C[C@H]1CS(=O)(=O)CCN1/N=C\\c1ccc([N+](=O)[O-])o1", "max dye-equivalent concentration": "inactive"}, {"smiles": "COCCCn1c(SCC(=O)Nc2ccc(C(=O)OC)cc2)nc2ccccc2c1=O", "max dye-equivalent concentration": "inconclusive: 1.5 nM"}, {"smiles": "Cc1cccc(C)c1NS(=O)(=O)c1ccc(F)cc1", "max dye-equivalent concentration": "inconclusive: 1.6 nM"}, {"smiles": "Cc1cc(C(=O)NCc2ccccc2Br)no1", "max dye-equivalent concentration": "inconclusive: 1.1 nM"}, {"smiles": "Cn1c(N2CCN(c3ccccn3)CC2)nc2c1c(=O)n(Cc1ccccc1Cl)c(=O)n2C", "max dye-equivalent concentration": "inconclusive: 1.1 nM"}, {"smiles": "O=S(=O)(c1ccc(F)c(Cl)c1)N1CCCC1", "max dye-equivalent concentration": "inconclusive: 1.3 nM"}, {"smiles": "CC(C)NC(=O)Cn1c(SCC(=O)N2c3ccccc3CC2C)nc2ccccc21", "note": "(stereo not given)", "max dye-equivalent concentration": "inconclusive: 1.4 nM"}, {"smiles": "COC(=O)c1ccc(NC(=O)CSc2nnc(CNc3ccc(OC)cc3)n2C)cc1", "max dye-equivalent concentration": "inconclusive: 1.2 nM"}, {"smiles": "COc1ccccc1NC(=O)Nc1ccnn1Cc1cccs1", "max dye-equivalent concentration": "inconclusive: 1.4 nM"}, {"smiles": "COc1ccc(-c2nsc3c(N4CCN(S(=O)(=O)c5ccccc5)CC4)ncnc23)cc1", "max dye-equivalent concentration": "inconclusive: 1.3 nM"}, {"smiles": "CCN(CC)CCCCCCCCOC(=O)c1cc(OC)c(OC)c(OC)c1", "max dye-equivalent concentration": "inconclusive: 1.2 nM"}, {"smiles": "COc1cc2c(cc1OC)C(CCN)=NCC2", "max dye-equivalent concentration": "inactive"}, {"smiles": "CCCc1cc(=O)[nH]c(/N=C(\\N)Nc2ccccc2)n1", "max dye-equivalent concentration": "inconclusive: 1.6 nM"}, {"smiles": "CC1(C)CC(=O)C2=C(C1)OC(N)=C(C#N)C2C#Cc1ccccc1", "note": "(stereo not given)", "max dye-equivalent concentration": "inconclusive: 1.3 nM"}, {"smiles": "C#C[C@@]1(O)CC[C@@H]2[C@@H]3CCC4=CC(=O)CC[C@@H]4[C@H]3CC[C@]21C", "max dye-equivalent concentration": "inconclusive: 1.1 nM"}, {"smiles": "CCCSc1ccc2nc(NC(=O)OC)[nH]c2c1", "max dye-equivalent concentration": "inconclusive: 1.5 nM"}, {"smiles": "CC(C)C(c1nnnn1Cc1ccco1)N1CCN(c2nc3ccccc3s2)CC1", "note": "(stereo not given)", "max dye-equivalent concentration": "inconclusive: 1.1 nM"}, {"smiles": "CC1Cc2ccccc2N1C(=O)Cn1nc(C(=O)O)c2ccccc2c1=O", "note": "(stereo not given)", "max dye-equivalent concentration": "inconclusive: 1.2 nM"}, {"smiles": "CN(CC(=O)N1CCc2ccccc21)S(=O)(=O)c1cccs1", "max dye-equivalent concentration": "inconclusive: 2.6 nM"}, {"smiles": "C[C@@H]1C[C@H]2[C@@H]3C[C@H](F)C4=CC(=O)C=C[C@@]4(C)[C@]3(F)[C@H](O)C[C@]2(C)[C@@]1(O)C(=O)CO", "max dye-equivalent concentration": "inconclusive: 1.6 nM"}, {"smiles": "N#Cc1nc(-c2cccs2)oc1N1CCOCC1", "max dye-equivalent concentration": "inconclusive: 1.8 nM"}, {"smiles": "CN(C)S(=O)(=O)c1cccc(C(=O)NCc2ccco2)c1", "max dye-equivalent concentration": "inconclusive: 1.4 nM"}, {"smiles": "O=C(CCCCn1c(=O)c2ccccc2n(Cc2ccc(F)cc2)c1=O)NCc1ccco1", "max dye-equivalent concentration": "inconclusive: 1.1 nM"}, {"smiles": "CC1CCCCC1NC(=O)CN1C(=O)NC(C)(c2ccc(OC(F)F)cc2)C1=O", "note": "(stereo not given)", "max dye-equivalent concentration": "inconclusive: 1.6 nM"}, {"smiles": "COc1cc(C)c(S(=O)(=O)N2CCN(C)CC2)cc1C", "max dye-equivalent concentration": "inconclusive: 1.1 nM"}, {"smiles": "CCn1c2ccccc2c2cc(NC(=O)Cc3ccc(S(=O)(=O)N4CCOCC4)s3)ccc21", "max dye-equivalent concentration": "inconclusive: 1.1 nM"}, {"smiles": "Cc1cc(N)c2ccccc2[n+]1CCCCCCCCCC[n+]1c(C)cc(N)c2ccccc21", "max dye-equivalent concentration": "inconclusive: 1.4 nM"}, {"smiles": "O=C(N1CCOCC1)N1CCN(c2nc(-c3ccc(F)cc3)cs2)CC1", "max dye-equivalent concentration": "inconclusive: 1.4 nM"}, {"smiles": "CC1(C)N([O-])C(c2cccs2)=C[N+]1=O", "max dye-equivalent concentration": "inconclusive: 1.7 nM"}, {"smiles": "CSc1ccc(C2C3(C#N)C(N)=NC4(OCCO4)C23C#N)cc1", "note": "(stereo not given)", "max dye-equivalent concentration": "inconclusive: 1.2 nM"}, {"smiles": "COc1ccc2c(c1)c(C(O)CN1CCN(Cc3ccc4c(c3)OCO4)CC1)c(C)n2C", "note": "(stereo not given)", "max dye-equivalent concentration": "inconclusive: 2.5 nM"}, {"smiles": "CCOC(=O)c1c(C)oc2c(F)c(F)c(F)c(F)c2c1=O", "max dye-equivalent concentration": "inconclusive: 1.3 nM"}, {"smiles": "O=C(C1CCC1)N1CCc2cc(S(=O)(=O)N3CCCCC3)ccc21", "max dye-equivalent concentration": "inconclusive: 1.1 nM"}, {"smiles": "COc1cccc(OC)c1C(=O)Nc1ccc(N2CCN(S(C)(=O)=O)CC2)cc1", "max dye-equivalent concentration": "inconclusive: 1.6 nM"}, {"smiles": "CCn1c(=O)cc(SCC(=O)Nc2cccnc2)c2ccccc21", "max dye-equivalent concentration": "inconclusive: 1.1 nM"}, {"smiles": "CC(C)C(=O)Nc1cccc(C(=O)Nc2ccc3c(c2)OCO3)c1", "max dye-equivalent concentration": "inactive"}, {"smiles": "O=c1cc(CNC2CCCCC2)c2ccccc2[nH]1", "max dye-equivalent concentration": "inconclusive: 1.2 nM"}, {"smiles": "COc1ccccc1N1CCN(C(=O)c2cc(-c3ccc(C)cc3)on2)CC1", "max dye-equivalent concentration": "inconclusive: 1.1 nM"}, {"smiles": "Cc1ccccc1N=C1Nc2ccccc2CS1", "max dye-equivalent concentration": "inconclusive: 1.4 nM"}, {"smiles": "CN(C)CCCOC(=O)C1c2ccccc2Oc2ccccc21", "max dye-equivalent concentration": "inconclusive: 1.1 nM"}, {"smiles": "COC(=O)c1c(NC(=O)c2c(C)noc2C)sc2c1CCCCCC2", "max dye-equivalent concentration": "inconclusive: 1.8 nM"}, {"smiles": "CN1CCN(c2ncc3nc(CCc4ccccc4)c(=O)n(C4CC4)c3n2)CC1", "max dye-equivalent concentration": "inactive"}, {"smiles": "COc1cc(OC)cc(C(=O)NCC(=O)N2CCCCC2)c1", "max dye-equivalent concentration": "inconclusive: 1.7 nM"}, {"smiles": "N#CCCn1c(=O)c(-c2ccc(F)cc2)nc2cnc(Oc3ccccc3)nc21", "max dye-equivalent concentration": "inconclusive: 1.1 nM"}, {"smiles": "Nc1c(NCCN2CCOCC2)c2ccccc2oc1=O", "max dye-equivalent concentration": "inconclusive: 1.2 nM"}, {"smiles": "COC(=O)c1ccc(Cl)c(NC(=O)CN2CCN(Cc3ccccc3)CC2)c1", "max dye-equivalent concentration": "inconclusive: 1.4 nM"}, {"smiles": "COc1ccc(CNC(=O)c2ccc(N3CCCC3=O)cc2)cc1", "max dye-equivalent concentration": "inconclusive: 2 nM"}, {"smiles": "O=c1[nH]c(SCc2ccccc2Cl)nc2c1CCCC2", "max dye-equivalent concentration": "inconclusive: 1.1 nM"}, {"smiles": "O=C(COC(=O)c1n[nH]c2ccccc12)NC(=O)NC1CCCCC1", "max dye-equivalent concentration": "inconclusive: 1.7 nM"}, {"smiles": "CC(NC(=O)Cn1ccsc1=N)C12CC3CC(CC(C3)C1)C2", "note": "(stereo not given)", "max dye-equivalent concentration": "inconclusive: 1.3 nM"}, {"smiles": "CC(C)COC(=O)CCNc1n[nH]c(=O)[nH]c1=O", "max dye-equivalent concentration": "inconclusive: 1.2 nM"}, {"smiles": "O=C(CCN1CCCCC1)c1csc2ccccc12", "max dye-equivalent concentration": "inactive"}, {"smiles": "COc1cccc(C2=Nn3c(nnc3-c3ccccc3O)SC2)c1", "max dye-equivalent concentration": "inconclusive: 1.2 nM"}, {"smiles": "CC(=O)NC1CC2CCCC(C1)N2S(=O)(=O)c1cccc(F)c1", "note": "(stereo not given)", "max dye-equivalent concentration": "inconclusive: 1.3 nM"}, {"smiles": "c1ccc(-n2nnnc2OCCOc2nnnn2-c2ccccc2)cc1", "max dye-equivalent concentration": "inconclusive: 2 nM"}, {"smiles": "CN1Cc2c(N)cccc2[C@H](c2ccccc2)C1", "max dye-equivalent concentration": "inconclusive: 1.1 nM"}, {"smiles": "C=CCn1c(SCC(=O)Nc2ccc3c(c2)OCO3)nnc1-c1ccccc1", "max dye-equivalent concentration": "inconclusive: 1.4 nM"}, {"smiles": "COc1cccc2c1C(=O)c1c(O)c3c(c(O)c1C2=O)C[C@](O)(C(=O)CO)C[C@H]3O[C@@H]1C[C@H](N)[C@H](O)[C@H](C)O1", "max dye-equivalent concentration": "active: 95 nM"}, {"smiles": "COC(=O)c1[nH]c2cccc(OC)c2c1NC(=O)CCN1CCN(c2ccccc2F)CC1", "max dye-equivalent concentration": "inconclusive: 1.2 nM"}, {"smiles": "CCCCn1c(SCC(=O)N2CCC(C(=O)OCC)CC2)nc2cc(S(N)(=O)=O)ccc21", "max dye-equivalent concentration": "inactive"}]}]}
